These are yes or no findings as the source states them, for the method shown. Some entries that bind do so weakly or less than the wild type.
Assays:
[1] = target: EBOV GP (Ebola virus (EBOV)) (UniProt Q05320); assay: ELISA, GP antigen coated, mAb at 0.2 µg/ml
[2] = target: RESTV GP (Reston virus (RESTV)) (UniProt Q66799); assay: ELISA, GP antigen coated, mAb at 0.2 µg/ml

The chains behind the UniProt entries cited, without tags or fusion partners. Residues count along the entry.
UniProt Q05320, residues 33-637: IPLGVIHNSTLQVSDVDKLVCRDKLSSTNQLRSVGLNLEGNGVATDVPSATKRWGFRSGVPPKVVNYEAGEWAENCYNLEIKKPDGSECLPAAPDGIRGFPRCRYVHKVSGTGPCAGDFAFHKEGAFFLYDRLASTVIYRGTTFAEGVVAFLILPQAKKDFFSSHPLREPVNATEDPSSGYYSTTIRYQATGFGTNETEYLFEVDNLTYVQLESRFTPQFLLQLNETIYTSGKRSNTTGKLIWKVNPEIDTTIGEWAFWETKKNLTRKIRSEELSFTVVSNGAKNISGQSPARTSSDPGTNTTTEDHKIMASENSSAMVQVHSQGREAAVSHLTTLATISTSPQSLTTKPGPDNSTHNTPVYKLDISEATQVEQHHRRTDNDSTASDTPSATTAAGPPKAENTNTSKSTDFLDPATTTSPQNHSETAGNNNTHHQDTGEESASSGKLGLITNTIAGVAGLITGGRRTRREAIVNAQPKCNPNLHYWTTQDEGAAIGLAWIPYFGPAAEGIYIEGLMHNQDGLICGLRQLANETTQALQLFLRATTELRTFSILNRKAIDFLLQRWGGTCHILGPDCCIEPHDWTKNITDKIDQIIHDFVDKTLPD
UniProt Q66799, residues 34-638: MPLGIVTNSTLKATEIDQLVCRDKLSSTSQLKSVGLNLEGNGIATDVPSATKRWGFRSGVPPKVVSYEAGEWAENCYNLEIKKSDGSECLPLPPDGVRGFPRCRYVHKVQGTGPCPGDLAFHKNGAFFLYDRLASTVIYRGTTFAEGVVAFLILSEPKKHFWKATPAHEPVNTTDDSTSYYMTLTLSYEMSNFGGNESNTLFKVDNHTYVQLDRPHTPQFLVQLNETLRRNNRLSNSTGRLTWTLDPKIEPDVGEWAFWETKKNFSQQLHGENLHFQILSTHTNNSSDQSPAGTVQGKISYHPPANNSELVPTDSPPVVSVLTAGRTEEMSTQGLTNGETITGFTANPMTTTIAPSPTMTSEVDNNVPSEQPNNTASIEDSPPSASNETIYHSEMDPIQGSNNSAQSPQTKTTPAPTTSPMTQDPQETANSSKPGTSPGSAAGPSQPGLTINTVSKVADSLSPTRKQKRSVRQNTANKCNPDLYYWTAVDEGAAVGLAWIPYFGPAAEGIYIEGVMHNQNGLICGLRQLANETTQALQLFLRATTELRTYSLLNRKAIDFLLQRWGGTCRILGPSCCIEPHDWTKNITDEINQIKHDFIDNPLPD

B1: mAb PE-16 (antibody, V domains shown)
VH: QVQLVQSGAEVTKPGASVKVSCKASGYTFTTYYMHWVRQAPGQGLEWVGIINPSGGITRYAQKFQGRVTLTRDTSTTTVYMELSSLRSEDTAVYYCARDRYPVLFATDYGMDVWGQGTTVTVSS
VL: DIVMTQSPATLSLSPGERATLSCRASQSVSGYLAWYQQKPGQAPRLLIYDASNRATGIPARFSGSGSGTDFTLTISSLEPEDFAVYYCQQRSIWPPGVTFGGGTKVEIK
- binding [1]: binds

B2: mAb PE-47 (antibody, V domains shown)
VH: EVQLVESGGGLVKPGGSLRLSCAASGFTFSNAWMSWVRQAPGEGLEWVGRIKSKTDGGTIDYAAPVKGRFTISRDDSKNTVYLQMTSLKTEDTAVYYCTTYTEDMQYFDWLLRGGETFDYWGQGTLVTVSS
VL: DIQMTQSPSSLSASVGDRVTITCRASQYISTYLNWYQQKPGKAPKLLIYAAYNLQSGVPSRFSGSGSGTDFTLTISSLQPEDFATYYCQQSYSTPGRYTFGQGTKVEIK
- binding [1]: binds

B3: mAb PE-24 (antibody, V domains shown)
VH: EVQLVESGGGLVQPGGSLRLSCAASGFTFSSYAMSWVRQAPGKGLEWVSEISGLGGSTYYADSAKGRFTISRDNSKSTLYLQMNSLRAEDTAVYYCAKDHRVWAPGYYFDHWGQGTLVTVSS
VL: DIVLTQSPSTLSASVGDRVTITCRASQSISSWLAWYQQKPGKAPKLLIYDASSLESGVPSRFSGSGSGTEFTLTISSLQPDDFATYFCQQYNRSPTFGGGTKVEIK
- binding [1]: binds
- binding [2]: binds

B4: mAb PE-87 (antibody, V domains shown)
VH: QVQLVQSGVTLVQPGGSLRVSCAASGFTFSSYAMSWVRQAPGKGLEWVSAISGLGGSTYYADSVKGRFTISRDNSKNTLYLQMNSLRAEDTAVYYCAKDHRVWAAGYHFDYWGQGALVTVSS
VL: DIVLTQSPSTLSASVGDRVTITCRASQSISSWLAWYQQKPGEAPKLLISDASSLESGVPSRFSGSGSGTEFTLTISSLQPDDFATYYCQQYYSSPTFGGGTKVEIK
- binding [1]: binds
- binding [2]: binds

— US20180244758A1
